# Assay results: publication PMC8384837
# Positions count from the first letter of the chain named. Some of the results follow. For part of these data: At the low end of the ranking the order means little.
# What was measured:
# Details in all cases: yeast three-hybrid, YBZ-1, SC-Leu-His + 0.5 mM 3-AT, 4 days
# [1] = target: T1, PUM1 PUF domain R2-VFQ R3-THE R4-TFR N899V + Y900F + C935T + R936H + Q939E + N971T + H972F + Q975R (UniProt Q14671)
# T1 sequence: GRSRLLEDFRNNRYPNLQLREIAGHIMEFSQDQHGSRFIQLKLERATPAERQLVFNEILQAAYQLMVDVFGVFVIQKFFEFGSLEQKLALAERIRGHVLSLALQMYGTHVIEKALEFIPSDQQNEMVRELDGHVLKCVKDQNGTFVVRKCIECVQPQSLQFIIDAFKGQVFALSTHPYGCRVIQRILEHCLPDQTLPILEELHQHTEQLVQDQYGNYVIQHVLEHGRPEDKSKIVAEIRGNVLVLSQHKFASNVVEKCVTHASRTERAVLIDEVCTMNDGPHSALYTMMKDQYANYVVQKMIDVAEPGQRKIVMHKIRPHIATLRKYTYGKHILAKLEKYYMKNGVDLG
# [2] = target: T2, PUM1 PUF domain R4-ACG N971A + H972C + Q975G (UniProt Q14671)
# T2 sequence: T1 sequence with V72N, F73Y, T108C, H109R, E112Q, T144A, F145C, R148G
# [3] = target: T3, PUM1 PUF domain R4-ACS N971A + H972C + Q975S (UniProt Q14671)
# T3 sequence: T1 sequence with V72N, F73Y, T108C, H109R, E112Q, T144A, F145C, R148S
# [4] = target: T4, PUM1 PUF domain R4-ALC N971A + H972L + Q975C (UniProt Q14671)
# T4 sequence: T1 sequence with V72N, F73Y, T108C, H109R, E112Q, T144A, F145L, R148C
# [5] = target: T5, PUM1 PUF domain R4-ALG N971A + H972L + Q975G (UniProt Q14671)
# T5 sequence: T1 sequence with V72N, F73Y, T108C, H109R, E112Q, T144A, F145L, R148G
# [6] = target: T6, PUM1 PUF domain R4-ALS N971A + H972L + Q975S (UniProt Q14671)
# T6 sequence: T1 sequence with V72N, F73Y, T108C, H109R, E112Q, T144A, F145L, R148S
# [7] = target: T7, PUM1 PUF domain R4-ALY N971A + H972L + Q975Y (UniProt Q14671)
# T7 sequence: T1 sequence with V72N, F73Y, T108C, H109R, E112Q, T144A, F145L, R148Y
# [8] = target: T8, PUM1 PUF domain R4-AMA N971A + H972M + Q975A (UniProt Q14671)
# T8 sequence: T1 sequence with V72N, F73Y, T108C, H109R, E112Q, T144A, F145M, R148A
# [9] = target: T9, PUM1 PUF domain R4-AMC N971A + H972M + Q975C (UniProt Q14671)
# T9 sequence: T1 sequence with V72N, F73Y, T108C, H109R, E112Q, T144A, F145M, R148C
# [10] = target: T10, PUM1 PUF domain R4-AMV N971A + H972M + Q975V (UniProt Q14671)
# T10 sequence: T1 sequence with V72N, F73Y, T108C, H109R, E112Q, T144A, F145M, R148V
# [11] = target: T11, PUM1 PUF domain R4-ANC N971A + H972N + Q975C (UniProt Q14671)
# T11 sequence: T1 sequence with V72N, F73Y, T108C, H109R, E112Q, T144A, F145N, R148C
# [12] = target: T12, PUM1 PUF domain R4-ANL N971A + H972N + Q975L (UniProt Q14671)
# T12 sequence: T1 sequence with V72N, F73Y, T108C, H109R, E112Q, T144A, F145N, R148L
# [13] = target: T13, PUM1 PUF domain R4-ANS N971A + H972N + Q975S (UniProt Q14671)
# T13 sequence: T1 sequence with V72N, F73Y, T108C, H109R, E112Q, T144A, F145N, R148S
# [14] = target: T14, PUM1 PUF domain R4-ANY N971A + H972N + Q975Y (UniProt Q14671)
# T14 sequence: T1 sequence with V72N, F73Y, T108C, H109R, E112Q, T144A, F145N, R148Y
# [15] = target: T15, PUM1 PUF domain R4-APA N971A + H972P + Q975A (UniProt Q14671)
# T15 sequence: T1 sequence with V72N, F73Y, T108C, H109R, E112Q, T144A, F145P, R148A
# [16] = target: T16, PUM1 PUF domain R4-APC N971A + H972P + Q975C (UniProt Q14671)
# T16 sequence: T1 sequence with V72N, F73Y, T108C, H109R, E112Q, T144A, F145P, R148C
# [17] = target: T17, PUM1 PUF domain R4-APF N971A + H972P + Q975F (UniProt Q14671)
# T17 sequence: T1 sequence with V72N, F73Y, T108C, H109R, E112Q, T144A, F145P, R148F
# [18] = target: T18, PUM1 PUF domain R4-APG N971A + H972P + Q975G (UniProt Q14671)
# T18 sequence: T1 sequence with V72N, F73Y, T108C, H109R, E112Q, T144A, F145P, R148G
# [19] = target: T19, PUM1 PUF domain R4-API N971A + H972P + Q975I (UniProt Q14671)
# T19 sequence: T1 sequence with V72N, F73Y, T108C, H109R, E112Q, T144A, F145P, R148I
# [20] = target: T20, PUM1 PUF domain R4-APR N971A + H972P + Q975R (Homo sapiens) (UniProt Q14671)
# T20 sequence: T1 sequence with V72N, F73Y, T108C, H109R, E112Q, T144A, F145P
# [21] = target: T21, PUM1 PUF domain R4-APS N971A + H972P + Q975S (UniProt Q14671)
# T21 sequence: T1 sequence with V72N, F73Y, T108C, H109R, E112Q, T144A, F145P, R148S
# [22] = target: T22, PUM1 PUF domain R4-AQS N971A + H972Q + Q975S (UniProt Q14671)
# T22 sequence: T1 sequence with V72N, F73Y, T108C, H109R, E112Q, T144A, F145Q, R148S
# [23] = target: T23, PUM1 PUF domain R4-AQY N971A + H972Q + Q975Y (UniProt Q14671)
# T23 sequence: T1 sequence with V72N, F73Y, T108C, H109R, E112Q, T144A, F145Q, R148Y
# [24] = target: T24, PUM1 PUF domain R4-ARA N971A + H972R + Q975A (UniProt Q14671)
# T24 sequence: T1 sequence with V72N, F73Y, T108C, H109R, E112Q, T144A, F145R, R148A
# [25] = target: T25, PUM1 PUF domain R4-ARG N971A + H972R + Q975G (Homo sapiens) (UniProt Q14671)
# T25 sequence: T1 sequence with V72N, F73Y, T108C, H109R, E112Q, T144A, F145R, R148G
# [26] = target: T26, PUM1 PUF domain R4-ARR N971A + H972R + Q975R (UniProt Q14671)
# T26 sequence: T1 sequence with V72N, F73Y, T108C, H109R, E112Q, T144A, F145R
# [27] = target: T27, PUM1 PUF domain R4-ARS N971A + H972R + Q975S (UniProt Q14671)
# T27 sequence: T1 sequence with V72N, F73Y, T108C, H109R, E112Q, T144A, F145R, R148S
# [28] = target: T28, PUM1 PUF domain R4-ARV N971A + H972R + Q975V (Homo sapiens) (UniProt Q14671)
# T28 sequence: T1 sequence with V72N, F73Y, T108C, H109R, E112Q, T144A, F145R, R148V
# [29] = target: T29, PUM1 PUF domain R4-AWP N971A + H972W + Q975P (UniProt Q14671)
# T29 sequence: T1 sequence with V72N, F73Y, T108C, H109R, E112Q, T144A, F145W, R148P
# [30] = target: T30, PUM1 PUF domain R4-CCG N971C + H972C + Q975G (UniProt Q14671)
# T30 sequence: T1 sequence with V72N, F73Y, T108C, H109R, E112Q, T144C, F145C, R148G
sequence,measurement,setting,value
GGCUAGAACUAGUGGAUCCCCCGGCGCCCGGCGGCUCGAGCCCGGGUAAGUGUAGAUAGUCUGCAUGCCGCCGGGCGCCAUGCCUGCAGGUCGACUCUAGAAAACAUG,binding signal (log2 enrichment (interaction score)),[1],-5.6
same,binding signal (log2 enrichment (interaction score)),[2],< -7.81
same,binding signal (log2 enrichment (interaction score)),[3],< -7.83
same,binding signal (log2 enrichment (interaction score)),[4],< -7.11
same,binding signal (log2 enrichment (interaction score)),[5],< -8.66
same,binding signal (log2 enrichment (interaction score)),[6],< -6.36
same,binding signal (log2 enrichment (interaction score)),[7],< -7.25
same,binding signal (log2 enrichment (interaction score)),[8],< -5.04
same,binding signal (log2 enrichment (interaction score)),[9],< -5.4
same,binding signal (log2 enrichment (interaction score)),[10],< -5.65
same,binding signal (log2 enrichment (interaction score)),[11],< -5.41
same,binding signal (log2 enrichment (interaction score)),[12],< -5.15
same,binding signal (log2 enrichment (interaction score)),[13],< -5.6
same,binding signal (log2 enrichment (interaction score)),[14],< -6.08
same,binding signal (log2 enrichment (interaction score)),[15],< -7.11
same,binding signal (log2 enrichment (interaction score)),[16],< -8.15
same,binding signal (log2 enrichment (interaction score)),[17],< -7.35
same,binding signal (log2 enrichment (interaction score)),[18],< -6.94
same,binding signal (log2 enrichment (interaction score)),[19],< -4.97
same,binding signal (log2 enrichment (interaction score)),[20],0.84
same,binding signal (log2 enrichment (interaction score)),[21],< -7.52
same,binding signal (log2 enrichment (interaction score)),[22],< -5.96
same,binding signal (log2 enrichment (interaction score)),[23],< -6.29
same,binding signal (log2 enrichment (interaction score)),[24],< -6
same,binding signal (log2 enrichment (interaction score)),[25],-4.04
same,binding signal (log2 enrichment (interaction score)),[26],< -8.31
same,binding signal (log2 enrichment (interaction score)),[27],< -6.57
same,binding signal (log2 enrichment (interaction score)),[28],-0.15
same,binding signal (log2 enrichment (interaction score)),[29],< -5.7
same,binding signal (log2 enrichment (interaction score)),[30],< -6.88

# Some of the entries above, reformatted.
sequence | measurement | setting | value
GGCUAGAACUAGUGGAUCCCCCGGCGCCCGGCGGCUCGAGCCCGGGUAAGUGUAGAUAGUCUGCAUGCCGCCGGGCGCCAUGCCUGCAGGUCGACUCUAGAAAACAUG | binding signal (log2 enrichment (interaction score)) | [10] | < -5.65
same | binding signal (log2 enrichment (interaction score)) | [19] | < -4.97
